Data on one molecule can be found in paper PMC4019584.

No constants are given. Whether binding was seen depends on the method and setting. Some entries that bind do so weakly or less than the wild type.

This test deals with T1, NF-κB p50 (human (endogenous in AGS)), P19838.
T1 chain: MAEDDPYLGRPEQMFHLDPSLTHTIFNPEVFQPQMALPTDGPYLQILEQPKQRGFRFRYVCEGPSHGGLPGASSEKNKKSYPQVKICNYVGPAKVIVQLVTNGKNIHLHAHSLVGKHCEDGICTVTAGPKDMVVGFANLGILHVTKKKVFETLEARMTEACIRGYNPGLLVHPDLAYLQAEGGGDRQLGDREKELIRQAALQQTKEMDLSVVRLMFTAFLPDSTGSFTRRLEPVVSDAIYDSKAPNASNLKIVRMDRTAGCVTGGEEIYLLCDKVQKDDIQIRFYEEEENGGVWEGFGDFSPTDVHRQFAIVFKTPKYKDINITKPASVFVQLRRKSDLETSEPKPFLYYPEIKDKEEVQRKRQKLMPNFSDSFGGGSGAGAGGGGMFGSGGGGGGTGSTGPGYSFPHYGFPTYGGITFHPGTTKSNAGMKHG
In words: native gel or EMSA; supershift: nuclear extracts (10 µg) of H. pylori-infected AGS cells with a 32P-labelled probe of the NF-κB site of the CCL20 promoter and 0.4 µg antibody to p65 or p50, room temperature, 6% native polyacrylamide gel in TGE buffer. The note with it: remark: other sources report otherwise. Background: In EMSA bound probe runs differently from free probe, usually more slowly.

B1: NF-κB p50, P19838 1-433 (protein)
chain: T1 chain
With B1, the binding result was “binds”.
